The results in this text go back to publication PMC12046042.

The target of the assay is T1, CD200R (human (endogenous in HEL92.1.7)) (UniProt Q8TD46).
T1 sequence: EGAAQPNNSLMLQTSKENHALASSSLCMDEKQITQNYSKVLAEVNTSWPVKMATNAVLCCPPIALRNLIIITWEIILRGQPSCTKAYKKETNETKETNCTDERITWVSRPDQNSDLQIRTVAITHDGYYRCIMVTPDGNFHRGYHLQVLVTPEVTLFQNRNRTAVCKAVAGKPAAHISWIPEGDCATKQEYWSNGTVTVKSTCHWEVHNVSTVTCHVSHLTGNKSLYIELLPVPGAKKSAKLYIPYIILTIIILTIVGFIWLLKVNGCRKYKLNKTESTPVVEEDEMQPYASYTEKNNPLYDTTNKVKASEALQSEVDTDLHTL
Briefly: flow cytometry on cells; HEL92.1.7 cells naturally expressing CD200R, preincubated 2 h at room temperature with 66 nM ucenprubart, hCD200Fc or isotype control, Fc blocked, then a titration of the hCD200Fc ligand; only the binder purified. A general note: A flow cytometer gives signals particle by particle.

No constants are given. Whether binding was seen depends on the method and setting. Some results given as binding are weak or reduced against the parent protein; the word gives no strength. Sequences can lack the tags named with a protein.

B1: hCD200-Fc (Fc fusion, UniProt P41217 31-232)
chain: QVQVVTQDEREQLYTPASLKCSLQNAQEALIVTWQKKKAVSPENMVTFSENHGVVIQPAYKDKINITQLGLQNSTITFWNITLEDEGCYMCLFNTFGFGKISGTACLTVYVQPIVSLHYKFSEDHLNITCSATARPAPMVFWKVPRSGIENSTVTLSHPNGTTSVTSILHIKDPKNQVGKEVICQVLHLGTVTDFKQTVNKG
Turning to B1, the binding entry is given as “binds”.
